The whole screen tested about 320,000 compounds, of which about 22,000 (6.9%) were called active. This list was built around the results that the source calls inconclusive (neither active nor inactive); the mix of calls is not that of the screen. The call rests on the fitted dose curve; in most records, active means well fitted inhibition curve with a large enough effect; inconclusive means small, poorly fitted or top-dose-only effect, or another doubt; inactive means no such curve, though single readings can be large or run the other way. Potencies beside an inconclusive call are fits to weak or partial responses and may not hold up.
Assay: Primary qHTS for delayed death inhibitors of the malarial parasite plastid, 96 hour incubation
Details: P. falciparum luciferase reporter growth; series mostly up to 28.7 µM; activity change, negative = inhibition: at the top concentration
In short: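 P. falciparum expressing integrated firefly luciferase grown in erythrocytes (2% hematocrit, 0.05% parasitemia final) with compounds for 96 hours at 37 C, 5% CO2. Growth inhibition read as loss of luminescence after adding luciferase detection reagent.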
On the % scale 0 is the no-effect control and ±100 the full control effect; potency means the concentration at half of the fitted maximal effect.

Structure (SMILES) | activity change, negative = inhibition | Potency
COc1cc(C(=S)N2CCOCC2)cc(OC)c1OS(=O)(=O)c1ccc(C)cc1 | inactive: -36.2% | –
COc1ccc(NC(=O)CCC(=O)c2cccs2)cc1S(=O)(=O)Nc1ccccc1Cl | inactive: -16.8% | –
C#CCn1c(=NC(=O)c2ccc(S(=O)(=O)N3CCc4ccccc4C3)cc2)sc2cc(S(N)(=O)=O)ccc21 | – | active: 5.22 µM
O=C(NCCc1ccc2c(c1)OCCO2)c1ccccc1F | inactive: 104% | –
O=[As]O[As]=O (centres undefined) | – | active: 1.9 µM
COc1ccc(N2CCN(C(=O)c3ccc(N(C)S(=O)(=O)c4ccc(OC)cc4)cc3)CC2)cc1 | – | inconclusive: 3.7 µM [inhibitor, single point]
FC(F)(F)c1ccccc1NC(=S)N1CCN(c2ccccn2)CC1 | – | inconclusive: 18.5 µM [inhibitor, single point]
COc1cccc(N2CCN(c3ccc(S(=O)(=O)N4CCCC4)cc3)CC2)c1 | – | inconclusive: 0.415 µM [inhibitor, full curve, poor fit]
CSc1ncc(CN2CCc3c([nH]c4ccccc34)C2C(C)(C)C)cn1 (centres undefined) | inactive: -25.9% | –
CC1CN(S(=O)(=O)c2cc(C(=O)N(CCc3ccccc3)Cc3ccccc3)ccc2Cl)CC(C)O1 (centres undefined) | – | active: 5.22 µM
CCOC(=O)c1c(-c2ccc(F)cc2)csc1NC(=O)c1c(-c2ccccc2)noc1C | inactive: -0.787% | –
O=C(O)c1cccnc1SCc1cccc(Br)c1 | inactive: -7.87% | –
O=C(NCCc1ccc(F)cc1)c1cccc(NC(=O)c2ccccc2)c1 | – | inconclusive: 18.5 µM [inhibitor, single point]
CC1CCCCC1NC(=O)c1cc2c(=O)n3ccccc3nc2n1C (centres undefined) | – | active: 2.33 µM
COCCn1c(C)cc(C(=O)CSc2nnnn2C2CCCC2)c1C | inactive: 39% | –
Cc1[nH]n(C(N)=S)c(=O)c1N=Nc1ccccc1C(F)(F)F | inactive: 7.49% | –
CCC(C)[C@H]1CNCCN1CC1(c2ccccc2)CC1 (some centres undefined) | – | inconclusive: 20.8 µM [inhibitor, single point]
CC1Cc2cc(S(=O)(=O)N3CCC(C(=O)Nc4ccccn4)CC3)ccc2N1C(=O)C1CCC1 (centres undefined) | – | inconclusive: 5.86 µM [inhibitor, partial curve]
COc1ccccc1N1CCN(c2ncnc3c2oc2ccccc23)CC1 | inactive: -26.8% | –
CC1=NNC(=O)C1CCC(=O)N/N=C/c1ccc(Cl)cc1 (centres undefined) | – | inconclusive: 8.28 µM [inhibitor, single point]
O=C1Cc2ccccc2C(c2ccc(Cl)cc2)N1 (centres undefined) | inactive: -22.3% | –
CCN(CC)CC#CC(OC)(c1ccccc1)c1ccccc1 | – | inconclusive: 9.28 µM [inhibitor, partial curve]
Cc1ccc(-c2cc(C(=O)NCCc3ccc(S(N)(=O)=O)cc3)c3ccccc3n2)cc1 | – | inconclusive: 16.5 µM [inhibitor, single point]
Cc1cc(O)ccc1Nc1nc(-c2cccnc2)cs1 | – | inconclusive: 11.7 µM [inhibitor, single point]
O=[N+]([O-])c1cccc(S(=O)(=O)N2CCCCC2c2cccnc2)c1 (centres undefined) | – | inconclusive: 18.5 µM [inhibitor, single point]

Individual results from the entries so far.
In activity change, negative = inhibition, `O=C(NCCc1ccc2c(c1)OCCO2)c1ccccc1F` has the entry inactive: 104%
In Potency, `C#CCn1c(=NC(=O)c2ccc(S(=O)(=O)N3CCc4ccccc4C3)cc2)sc2cc(S(N)(=O)=O)ccc21` has the entry active: 5.22 µM
In Potency, `CC1=NNC(=O)C1CCC(=O)N/N=C/c1ccc(Cl)cc1` (centres undefined) has the entry inconclusive: 8.28 µM [inhibitor, single point]
In Potency, `COc1ccc(N2CCN(C(=O)c3ccc(N(C)S(=O)(=O)c4ccc(OC)cc4)cc3)CC2)cc1` has the entry inconclusive: 3.7 µM [inhibitor, single point]
In activity change, negative = inhibition, `COCCn1c(C)cc(C(=O)CSc2nnnn2C2CCCC2)c1C` has the entry inactive: 39%

Later entries

Structure (SMILES) | activity change, negative = inhibition | Potency
COc1ccc(NC(=O)C(c2ccccc2)N2CCN(c3ccccn3)CC2)cc1Cl (centres undefined) | – | inconclusive: 18.5 µM [inhibitor, partial curve, poor fit]
O=C(Nc1ccc(SC(F)F)cc1)c1ccc2nccnc2c1 | – | inconclusive: 11.7 µM [inhibitor, single point]
CSc1nnc(C)c(/C=C/Nc2ccc(C)cc2)n1 | inactive: 21% | –
C/C(=N\Nc1nc2ccccc2[nH]1)c1ccc2c(c1)OCO2 | – | inconclusive: 0.262 µM [inhibitor, full curve, poor fit]
CC(=O)Nc1ccc(N=Cc2ccc[nH]2)cc1 | – | inconclusive: 4.15 µM [inhibitor, partial curve, poor fit]
Clc1ccc(C2[C@H]3CN(CC4CCCCC4)[C@H](c4ccccc4)C34CC2(c2cccnc2)C4)cn1 (some centres undefined) | – | inconclusive: 3.7 µM [inhibitor, single point]
CCN1CCCC(NC(=O)c2scc3c2CCCC3)C1 (centres undefined) | – | inconclusive: 18.5 µM [inhibitor, partial curve, poor fit]
O=C(c1ccc(Cl)cc1)c1oc2ccccc2c1CS(=O)(=O)c1ccccc1 | – | active: 10.4 µM
C=CCNc1nc(N)c([N+](=O)[O-])c(N2CCCCCC2)n1 | inactive: -2.34% | –
CCOC(=O)[C@H]1[C@H]2COc3ccc(OC)cc3[C@@H]2N2C(=O)c3ccccc3NC(=O)[C@@]12C | – | inconclusive: 18.5 µM [inhibitor, single point]
CCCCn1c(N)c(N(CCOC)C(=O)CCNC(=O)c2ccccc2Cl)c(=O)[nH]c1=O | inactive: 29.8% | –
Cc1nc(C(=O)NCc2ccccc2)sc1C1(C)CC(c2cccnc2)=NO1 (centres undefined) | inactive: -1.98% | –
COc1cc(Cl)ccc1NC(=S)N(CCN(C)C)C(C)c1ccncc1 (centres undefined) | – | inconclusive: 10.4 µM [inhibitor, single point]
COc1cccc2cc(C(=O)N3CCCCCCC3)c(=O)oc12 | inactive: 0.684% | –
O=C(C1CCN(Cc2cc(Cl)ccc2O)CC1)N1CCN(Cc2ccccc2)CC1 | inactive: 9.1% | –
O=C(COC(=O)CNC(=O)c1cccc([N+](=O)[O-])c1)NCc1ccco1 | inactive: 49.6% | –
CC1(C)[N+]([O-])=C2C(=[N+]([O-])C1(C)C)c1ccccc1/C2=N\O | – | inconclusive: 13.1 µM [inhibitor, single point]
Cc1cc(OCC(=O)N[C@@H](Cc2ccccc2)c2nc3ccccc3[nH]2)ccc1Cl | – | inconclusive: 10.4 µM [inhibitor, single point]
CCC(CC)c1nnc(NC(=O)CS(=O)(=O)c2ccc(C)cc2)s1 | – | inconclusive: 5.86 µM [inhibitor, single point]
COCC(O)CNc1ccccc1 (centres undefined) | – | active: 13.1 µM
O=C(NNC(=O)c1ccc[nH]1)Nc1cc(Cl)cc(Cl)c1 | inactive: 38.6% | –
CCOC(=O)NC1(NC2CCCCC2)Oc2ccccc2O1 | inactive: -8.19% | –
CCN(CCn1cccn1)Cc1nc(-c2ccc(OC)cc2)no1 | – | inconclusive: 18.5 µM [inhibitor, single point]
CN(C(=O)CCN1C(=O)C(C)(C)Nc2ccccc21)c1ccccc1 | – | inconclusive: 2.08 µM [inhibitor, single point]
COCCOc1nc2c(c(=O)n(C)c(=O)n2C)n1Cc1cccc(OC)c1 | – | inconclusive: 10.4 µM [inhibitor, single point]

Structure (SMILES) | activity change, negative = inhibition | Potency
CCN(CC)S(=O)(=O)c1ccc(-c2csc(C)n2)cc1 | – | inconclusive: 18.5 µM [inhibitor, single point]
Cc1ccc(CNC(=O)C2CCC(=O)N(C3CCCC3)C2)c(F)c1F (centres undefined) | – | inconclusive: 10.4 µM [inhibitor, partial curve]
N#Cc1cc2c(nc1SCC(=O)Nc1cc(Cl)cc(Cl)c1)C1CCN2CC1 | – | inconclusive: 0.928 µM [inhibitor, partial curve, poor fit]
CCOC(=O)C1CCN(C(=O)c2cc3c(=O)n4cccc(C)c4nc3s2)CC1 | inactive: 28.5% | –
Cc1[nH]c2ccccc2c1C(=O)NS(=O)(=O)Nc1ccccc1 | – | inconclusive: 0.208 µM [inhibitor, full curve, poor fit]
Cc1cc(-c2nc3ccccc3o2)c2ccccc2n1 | – | inconclusive: 18.5 µM [inhibitor, single point]
CC1CCCN(C(=O)Cn2nnc(-c3ccc(F)cc3)n2)C1 (centres undefined) | inactive: 21% | –
O=C(Nn1cnc2ccccc2c1=O)c1c(F)cccc1F | inactive: 2.55% | –
O=C(COC(=O)C1CCC1)NCc1ccc(Cl)cc1Cl | inactive: 9.59% | –
O=C(NC1CCCC1)C1CCCN(S(=O)(=O)c2ccc(F)cc2)C1 (centres undefined) | – | inconclusive: 11.7 µM [inhibitor, single point]
COc1cnc(-c2ccccn2)nc1Oc1cccc(Cl)c1 | – | active: 2.62 µM
COc1ccc2[nH]c3nc(SC(C)C)nnc3c2c1 | – | active: 5.22 µM
CC(=O)N(CCC(Cc1ccccc1)c1ccco1)Cc1ccco1 (centres undefined) | – | inconclusive: 18.5 µM [inhibitor, single point]
CCOC(=O)C1=C(N)n2c(s/c(=C/c3ccco3)c2=O)=C(C(=O)OC)C1c1ccco1 (centres undefined) | – | inconclusive: 13.1 µM [inhibitor, partial curve]
C#CCOCCOCCOCCNc1nc(N2CCN(C(=O)[C@H](CCC(=O)O)n3cc(C(N)CC(C)C)nn3)CC2)nc(N2CCN(C(=O)[C@H](Cc3ccc(O)cc3)n3cc(C(N)CC(C)C)nn3)CC2)n1 (some centres undefined) | – | inconclusive: 18.5 µM [inhibitor, single point]
CCOC(=O)c1cnc2ccc(C)cc2c1Nc1ccc(N2CCOCC2)cc1 | – | active: 10.4 µM
COc1ccc(C(=O)NCCNc2nc3c(C)cccc3cc2C#N)cc1OC | – | inconclusive: 13.1 µM [inhibitor, single point]
Cc1ccc(Oc2ccc(C(=O)NCc3ccncc3)cc2)cc1 | – | inconclusive: 11.7 µM [inhibitor, partial curve, poor fit]
CS(=O)(=O)N1CCC(C(=O)N2CCN(c3ccccc3)CC2)CC1 | – | inconclusive: 1.85 µM [inhibitor, full curve]
C[C@H](NC(=O)C1CC(=O)N(c2ccc3c(c2)OCO3)C1)C(=O)NCc1ccco1 (some centres undefined) | inactive: 0.347% | –
Cc1ccc(CCN2CCN=C2Nc2ccccc2)cc1 | inactive: 47.1% | –
CC1CN(c2ccc([N+](=O)[O-])c(NCCOc3ccccc3)c2)CCN1 (centres undefined) | inactive: 10.5% | –
S=C(Nc1cc(Cl)cc(Cl)c1)NC1CCN(Cc2ccccc2)CC1 | – | inconclusive: 18.5 µM [inhibitor, single point]
COc1ccc(OC)c(/C=C/C(=O)N(C)CC(=O)Nc2ccc(N3CCOCC3)cc2)c1 | – | inconclusive: 10.4 µM [inhibitor, single point]

— PubChem BioAssay AID504834 (National Center for Advancing Translational Sciences (NCATS), 2011)
